Laboratory results as given in patent US20220204638A1, “Combination Therapies Comprising Daratumumab, Bortezomib, Thalidomide and Dexamethasone and Their Uses” (Janssen Biotech, Inc., priority 2019, published 2022).

Test system: multiple myeloma
Experiment: Clinical trials pooled, monotherapy and combination treatments (N=2,066)
Details: human, in vivo

DARZALEX: IgG1κ human monoclonal antibody against CD38, HC SEQ ID NO: 9 and LC SEQ ID NO: 10
Median duration of 16 mg/kg infusion, 1st week: approximately 7 hours
Median duration of 16 mg/kg infusion, 2nd week: ~4 h
Median duration of 16 mg/kg infusion, subsequent infusions: ~3 h
